Experimental data: PMC11821526
These are yes or no findings as the source states them, for the method shown. In cells and extracts the contact can be indirect. For part of these data: A result given as binding can be weak or reduced; the word gives no strength.

Protein sequences, listed by entry. Tags and fused reporters are not part of them. Lines headed by an entry give the natural chain unless they say otherwise; changes in a name come on top.
UniProt Q5XUX0: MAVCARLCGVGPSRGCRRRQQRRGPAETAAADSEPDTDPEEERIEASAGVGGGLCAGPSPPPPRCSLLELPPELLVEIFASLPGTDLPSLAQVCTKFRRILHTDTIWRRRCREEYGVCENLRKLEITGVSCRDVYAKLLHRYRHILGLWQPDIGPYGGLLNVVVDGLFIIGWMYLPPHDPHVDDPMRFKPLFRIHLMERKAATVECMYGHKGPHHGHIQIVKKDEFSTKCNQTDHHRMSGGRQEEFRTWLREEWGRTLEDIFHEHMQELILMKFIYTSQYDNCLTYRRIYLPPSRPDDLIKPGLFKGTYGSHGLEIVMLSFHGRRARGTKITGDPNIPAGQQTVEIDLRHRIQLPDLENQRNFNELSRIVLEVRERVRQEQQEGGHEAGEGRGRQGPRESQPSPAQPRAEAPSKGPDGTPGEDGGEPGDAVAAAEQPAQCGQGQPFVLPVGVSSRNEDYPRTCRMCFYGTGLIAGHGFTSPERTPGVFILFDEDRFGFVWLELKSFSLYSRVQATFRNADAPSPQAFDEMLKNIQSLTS
UniProt P24385: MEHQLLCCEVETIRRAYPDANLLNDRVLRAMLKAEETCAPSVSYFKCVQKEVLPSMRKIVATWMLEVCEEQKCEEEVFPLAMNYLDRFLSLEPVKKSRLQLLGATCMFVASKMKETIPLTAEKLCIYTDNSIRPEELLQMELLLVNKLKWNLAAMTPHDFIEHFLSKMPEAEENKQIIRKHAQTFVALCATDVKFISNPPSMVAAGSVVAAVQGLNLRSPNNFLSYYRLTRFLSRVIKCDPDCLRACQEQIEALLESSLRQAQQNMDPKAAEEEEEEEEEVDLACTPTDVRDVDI
UniProt P15104: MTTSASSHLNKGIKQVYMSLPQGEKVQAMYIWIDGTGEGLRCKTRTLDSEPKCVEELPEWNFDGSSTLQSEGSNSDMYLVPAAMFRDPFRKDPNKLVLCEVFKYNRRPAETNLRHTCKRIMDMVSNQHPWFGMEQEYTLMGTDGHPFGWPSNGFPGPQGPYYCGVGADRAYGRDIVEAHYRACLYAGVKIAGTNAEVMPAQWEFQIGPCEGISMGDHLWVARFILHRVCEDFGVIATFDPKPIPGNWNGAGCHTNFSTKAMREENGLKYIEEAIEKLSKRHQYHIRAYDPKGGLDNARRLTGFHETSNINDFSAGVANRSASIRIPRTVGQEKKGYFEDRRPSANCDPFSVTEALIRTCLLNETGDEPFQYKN

Legend:
[1] = molecular target: HA–FBXO31(D334N,ΔF-box) (human) (UniProt Q5XUX0); assay: co-IP; HA-FBXO31 cDNAs stably expressed in FBXO31-knockout HEK293 cells; mCherry–pep2 conjugates nucleofected 2 h before collection; 2 µM MLN4924 and 500 nM epoxomicin; anti-HA magnetic beads in SCF-IP buffer (150 mM NaCl, 50 mM Tris-HCl, 1 mM EDTA, 0.1% Igepal CA-630, 5% glycerol, pH 7.5), 4 °C overnight; immunoblot
[2] = molecular target: HA–FBXO31(ΔF-box) (human) (UniProt Q5XUX0); assay: co-IP; HA–FBXO31(ΔF-box) cDNAs in FBXO31-knockout HEK293T cells under oxidative stress (H2O2 200 µM 20 min; also menadione 10 µM 2 h or auranofin 10 µM 2 h), 500 nM epoxomicin; anti-HA magnetic beads in SCF-IP buffer; immunoblot of endogenous clients
[3] = molecular target: HA–FBXO31(ΔF-box) (human) (UniProt Q5XUX0); assay: co-IP; as a5, cells without H2O2 treatment

Substance	binding [1]	binding [2]	binding [3]
cyclin D1 (unmodified) (from UniProt P24385 1-295)	no binding	–	–
GLUL (glutamine synthetase) (from UniProt P15104 1-373)	–	binds	no binding (only cells without H2O2 treatment)
